{"sequences": {"note": "The chains behind the UniProt entries cited, without tags or fusion partners.", "UniProt Q8NER1, whole entry, looked up": "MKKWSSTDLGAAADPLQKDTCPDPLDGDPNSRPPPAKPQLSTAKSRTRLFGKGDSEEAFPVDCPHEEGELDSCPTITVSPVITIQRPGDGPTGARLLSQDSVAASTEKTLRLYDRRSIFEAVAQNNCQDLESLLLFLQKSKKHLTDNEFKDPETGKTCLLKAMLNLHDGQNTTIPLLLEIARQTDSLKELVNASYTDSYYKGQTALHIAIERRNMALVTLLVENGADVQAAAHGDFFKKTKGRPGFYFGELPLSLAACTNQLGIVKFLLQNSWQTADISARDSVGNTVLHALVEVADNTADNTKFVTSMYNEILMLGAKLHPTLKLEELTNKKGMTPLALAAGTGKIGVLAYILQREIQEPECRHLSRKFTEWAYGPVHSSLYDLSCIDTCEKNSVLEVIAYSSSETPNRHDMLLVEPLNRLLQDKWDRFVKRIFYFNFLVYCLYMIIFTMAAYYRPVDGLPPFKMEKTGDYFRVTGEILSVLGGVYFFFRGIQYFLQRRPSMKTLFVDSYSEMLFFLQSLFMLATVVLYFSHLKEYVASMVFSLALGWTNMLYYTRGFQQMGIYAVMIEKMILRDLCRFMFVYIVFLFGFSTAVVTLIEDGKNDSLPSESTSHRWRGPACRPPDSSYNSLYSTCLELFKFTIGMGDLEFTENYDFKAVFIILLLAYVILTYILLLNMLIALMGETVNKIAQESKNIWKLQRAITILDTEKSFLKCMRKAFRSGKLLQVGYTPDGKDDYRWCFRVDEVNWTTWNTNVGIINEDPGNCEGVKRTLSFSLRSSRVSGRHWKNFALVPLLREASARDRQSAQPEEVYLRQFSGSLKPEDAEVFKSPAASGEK"}, "source": "PubChem BioAssay AID540275", "about": "(National Center for Advancing Translational Sciences (NCATS), 2011)", "note": "In all, about 320,000 compounds went through this assay and about 620 (0.19%) were called active. Inconclusive results, whose numbers are uncertain, are shown with a selection of clear calls. Cut-off read from the data, not from the text of the source: active = activation above about 80%; inconclusive = between about 30% and that limit; inactive = weaker than that.", "data": [{"target": "Transient receptor potential cation channel subfamily V member 1 (Homo sapiens) (UniProt Q8NER1)", "experiment": "HTS Assay for Compounds that Act as Agonists of the Vanilloid Receptor 1; note: 0% is about no effect", "details": "TRPV1-expressing cells, Fluo-8 calcium influx, agonist mode; at 8.33 µM, active compounds read high", "in_short": "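TRPV1-expressing cells were cultured overnight at 35.5C and loaded with Fluo-8 calcium dye for 40 to 90 min at room temperature. After a 10 s baseline, compound was added and calcium influx was read kinetically for 3 min (ex 480/em 520 nm).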", "values": [{"compound": "CCOC(=O)/C(C#N)=C/c1c(N2CCCCCC2)nc2ccccn2c1=O", "activation": "inconclusive: 31.2%"}, {"compound": "CC(C)CN(C(=O)CSc1ncnc2ccccc12)C1CCS(=O)(=O)C1", "note": "(centres undefined)", "activation": "inactive: 2.23%"}, {"compound": "O=C(NCC1COc2ccccc2O1)c1cccc(S(=O)(=O)N2CCOCC2)c1", "note": "(centres undefined)", "activation": "inconclusive: 56.2%"}, {"compound": "CCN(CC)S(=O)(=O)c1ccc(C(=O)Nc2cc(C)cc(C)c2)cc1", "activation": "inconclusive: 30.3%"}, {"compound": "COc1ccc(/C=C2\\SC(=O)N(CCNC(=O)C3CCN(S(=O)(=O)c4cccs4)CC3)C2=O)cc1", "activation": "inactive: -2.58%"}, {"compound": "Cc1cc(C(=O)Nc2ccccc2N2CCCCC2)no1", "activation": "inconclusive: 35.1%"}, {"compound": "CC(=O)c1cccc(NC(=O)c2cc(Cl)sc2Cl)c1", "activation": "inconclusive: 70.1%"}, {"compound": "Cc1csc(NC(=O)c2ccc(Br)s2)n1", "activation": "inconclusive: 62.8%"}, {"compound": "O=C(COc1ccc(Cl)cc1Cl)NC(=O)N1CCCCC1", "activation": "inconclusive: 37.1%"}, {"compound": "CCCn1c(SCC(=O)N2CCN(c3ccc(OC)cc3)CC2)nc2c1c(=O)n(C)c(=O)n2C", "activation": "inactive: 2.89%"}, {"compound": "O=C(CSc1nc2c(c(=O)n1-c1ccc(Cl)cc1)SCC2)NCC1CCCO1", "note": "(centres undefined)", "activation": "inactive: 0.547%"}, {"compound": "O=C(Nc1ccccc1N1CCN(C(=O)c2ccccc2)CC1)c1cccc(Cl)c1", "activation": "inconclusive: 47.2%"}, {"compound": "O=C(NNC(=O)c1ccc([N+](=O)[O-])cc1C(=O)O)c1ccncc1", "activation": "inconclusive: 63.3%"}, {"compound": "CCOc1ccccc1N1CCN(Cc2cccc(OC)c2O)CC1", "activation": "inconclusive: 50.4%"}, {"compound": "C=CCN=C1SCC(=O)N1S(=O)(=O)c1ccc(C)cc1", "activation": "inactive: 0.965%"}, {"compound": "O=C(/C=C/c1cccc2ccccc12)N1CCOCC1", "activation": "active: 91.9%"}, {"compound": "COc1cccc(NC(=O)CSc2nc3ccccc3nc2N2CCCC2)c1", "activation": "inconclusive: 39.3%"}, {"compound": "CC(C)c1ccc(/C=N/n2c(-c3ccccc3)n[nH]c2=S)cc1", "activation": "inconclusive: 49%"}, {"compound": "COc1ccc2nc3c(c(-c4ccccc4)c2c1)CCC3", "activation": "inconclusive: 40.5%"}, {"compound": "O=C(NC(=S)NCCO)c1cn(-c2ccccc2)nc1-c1ccccc1", "activation": "inactive: 2.33%"}, {"compound": "COc1ccc2cc(C(=O)C3CCCN(C(=O)c4csnn4)C3)ccc2c1", "note": "(centres undefined)", "activation": "inconclusive: 37.5%"}, {"compound": "O=C(Nc1ccc(C(F)(F)F)cc1)c1ccc2nc[nH]c2c1", "activation": "inconclusive: 71.4%"}, {"compound": "CC(=O)c1cccc(NC(=O)Cc2coc3cc4c(cc23)CCC4)c1", "activation": "inconclusive: 76.9%"}, {"compound": "COc1ccc(-c2csc(Nc3ncccc3C)n2)cc1OC", "activation": "inactive: 4.73%"}, {"compound": "CCc1ccc(N(C(=O)Cn2nnc(-c3ccccc3)n2)C(C(=O)NC2CCCCC2)c2ccccn2)cc1", "note": "(centres undefined)", "activation": "inconclusive: 30.7%"}, {"compound": "CN(C(=O)COc1ccccc1C(=O)NCCc1ccccc1)c1ccccc1", "activation": "inconclusive: 64.4%"}, {"compound": "CCOC(=O)c1ccc(CSc2nnc(N)s2)cc1", "activation": "inconclusive: 32.2%"}, {"compound": "CC1CCCC(C)N1C(=O)c1ccccc1Nc1ccc(SC(F)F)cc1", "note": "(centres undefined)", "activation": "inconclusive: 31.4%"}, {"compound": "COc1ccc(S(=O)(=O)N2CCN(C(=O)COc3ccc(C)c(C)c3)CC2)cc1OC", "activation": "inconclusive: 50.5%"}, {"compound": "COc1ccc(CCNC(=O)CCSc2nc(-c3ccco3)cc(C(F)(F)F)n2)cc1OC", "activation": "inconclusive: 49.3%"}, {"compound": "CC(C)n1nc(C(=O)Nc2nc3ccccc3[nH]2)c2ccccc2c1=O", "activation": "inconclusive: 42.8%"}, {"compound": "Cc1cc(Cl)c2oc(C(=O)NC3CCC(O)CC3)c(C)c2c1", "note": "(centres undefined)", "activation": "inconclusive: 64.2%"}, {"compound": "CCOC(=O)c1ccc(NC(=O)CN2CCN(CCN=CC3=C(O)CC(C)(C)CC3=O)CC2)cc1", "activation": "inactive: 0.34%"}, {"compound": "CCN(CC)C(=O)c1ccc(Nc2nnc(-c3ccc(O)cc3)c3ccccc23)cc1", "activation": "inactive: -10.6%"}, {"compound": "CCCOCc1ccc(O)c2ncccc12", "activation": "inactive: -0.0122%"}, {"compound": "CN1C(=O)CSc2ccc(NC(=O)NCCC3=CCCCC3)cc21", "activation": "inconclusive: 52.2%"}, {"compound": "O=C(COC(=O)C1CCN(S(=O)(=O)c2cccs2)CC1)NCc1ccccc1", "activation": "inactive: 1.6%"}, {"compound": "CC1CCCC(C)N1CC(O)COC1CCC(C(C)(C)C)CC1", "note": "(centres undefined)", "activation": "inactive: 3.36%"}, {"compound": "O=C(CSc1nc2ccccc2nc1N1CCCCC1)Nc1ccc(F)cc1", "activation": "inconclusive: 62.4%"}, {"compound": "CC(NC(=O)CCNC(=O)c1ccco1)c1ccccc1", "note": "(centres undefined)", "activation": "inactive: -3.99%"}, {"compound": "O=C(CCNC(=O)c1ccc([N+](=O)[O-])cc1)NCCC1=CCCCC1", "activation": "inactive: 0.873%"}, {"compound": "CCNC(=S)NNC(=O)c1cc(-c2cccc(OCC)c2)nc2ccccc12", "activation": "inactive: 0.204%"}, {"compound": "Cc1ccc(NC(=O)N2CCCCCC2)cc1C", "activation": "inconclusive: 41.6%"}, {"compound": "O=C(Cn1nnc(-c2ccncc2)n1)N(C1CCCCC1)C1CCCCC1", "activation": "inconclusive: 64.9%"}, {"compound": "CC(C)CCN(C(=O)CNC(=O)c1ccco1)C(C(=O)NC1CCCCC1)c1ccco1", "note": "(centres undefined)", "activation": "inconclusive: 43.6%"}, {"compound": "CCOC(=O)C1(CCc2ccccc2)CCN(C(=O)c2occc2C)CC1", "activation": "inconclusive: 33.4%"}, {"compound": "CS(=O)(=O)N1CCC(C(=O)N2CCN(c3ccccc3F)CC2)CC1", "activation": "inconclusive: 38.4%"}, {"compound": "COc1ccc(/C=N/NC(=O)CCCOc2ccc(Cl)cc2Cl)cc1", "activation": "inconclusive: 33.1%"}, {"compound": "O=C(c1ccc(Cl)c(Cl)c1)N1CCN(Cc2ccc3c(c2)OCO3)CC1", "activation": "inconclusive: 33.9%"}, {"compound": "COc1ccc(C(=O)CN2CCN(c3cc(C)nc4ccccc34)CC2)cc1", "activation": "inactive: 4.54%"}, {"compound": "CC1=NN(c2ccccc2)C(=O)/C1=C\\C=C1/N(C)c2ccccc2C1(C)C", "activation": "inactive: -6.04%"}, {"compound": "COc1cc(C(=O)NCC(c2ccco2)N2CCCC2)ccc1OCc1ccccc1", "note": "(centres undefined)", "activation": "inactive: 3.05%"}, {"compound": "CC(C)OC(=O)C(C)(C)Oc1ccc(C(=O)c2ccc(Cl)cc2)cc1", "activation": "inconclusive: 34.5%"}, {"compound": "O=C(Nc1ccc(Cl)c(Cl)c1)N1CCCCCC1", "activation": "inconclusive: 61.1%"}, {"compound": "Cc1cc(C(=O)Nc2ccc([N+](=O)[O-])cn2)cs1", "activation": "active: 82.5%"}, {"compound": "O=C(NNC(=O)c1ccc(NC(=O)c2ccccc2)cc1)c1ccccc1", "activation": "inactive: -1.51%"}, {"compound": "COC(=O)c1cccc(CSc2nc3ccccc3[nH]2)c1", "activation": "inconclusive: 36.2%"}, {"compound": "Cc1nn(Cc2ccc(C(=O)N3CCOCC3)o2)c(C)c1Br", "activation": "inactive: -1.06%"}, {"compound": "COc1ccc(NC(=O)c2scc(S(=O)(=O)C(C)C)c2N)cc1", "activation": "inconclusive: 56.7%"}, {"compound": "COc1ccc(NC(=O)C2CCN(C(=O)C3CC(=O)N(c4ccc(C)cc4)C3)CC2)cc1", "note": "(centres undefined)", "activation": "inconclusive: 44.9%"}, {"compound": "CN(CC(=O)NCc1cccs1)S(=O)(=O)c1cccc2cccnc12", "activation": "inactive: 0.0692%"}, {"compound": "CCOC(=O)c1sc(NC(=S)NC(=O)C2CCCC2)cc1C", "activation": "inconclusive: 58.8%"}, {"compound": "O=C(CCSCc1ccccc1Cl)NCc1cccs1", "activation": "inconclusive: 54%"}, {"compound": "COc1ccc(CCn2c(C(C)C)nc3oc4ccccc4c(=O)c3c2=O)cc1", "activation": "inconclusive: 33.7%"}, {"compound": "CC(=O)Nc1ccc(Sc2ncccc2C(=O)Nc2cc(Cl)cc(Cl)c2)cn1", "activation": "inactive: -1.45%"}, {"compound": "Cc1ccc(Cn2c(N3CCCCCC3)nc3c2c(=O)[nH]c(=O)n3C)cc1", "activation": "inconclusive: 36.1%"}, {"compound": "COc1ccc([C@@H](C)NC(=O)c2ccc3oc(C(C)C)nc3c2)cc1", "activation": "inconclusive: 40.2%"}, {"compound": "COc1ccc(S(=O)(=O)NNC(=O)c2cc3cc4ccccc4nc3s2)cc1", "activation": "inactive: 8.77%"}, {"compound": "COC(=O)COc1ccc(S(=O)(=O)NCCC2=CCCCC2)cc1Cl", "activation": "inconclusive: 43.2%"}, {"compound": "O=C(NCc1ccncc1)c1ccc2nc(Cc3ccccc3F)oc2c1", "activation": "inconclusive: 61.5%"}, {"compound": "O=C(N/N=C/c1cccnc1)c1cccc(Br)c1", "activation": "inconclusive: 66.1%"}, {"compound": "Oc1[nH]c2ccc(Br)cc2c1N=NC(=S)N1CCOCC1", "activation": "inactive: -2.89%"}, {"compound": "Cc1ccccc1OCc1ccc(C(=O)N2CCOCC2)o1", "activation": "inconclusive: 46.6%"}, {"compound": "CC(C)OC(=O)c1ccc(NC(=O)c2ccco2)cc1", "activation": "inconclusive: 67.7%"}, {"compound": "O=C(O)c1ccccc1-c1ccc(/C=c2\\sc3nc4cc(Br)cnc4n3c2=O)o1", "activation": "inactive: 2.6%"}, {"compound": "Cc1cc(C)n(-c2ccc(C(=O)Nc3cccc(S(=O)(=O)N(C)C)c3)cc2)n1", "activation": "inconclusive: 33.9%"}, {"compound": "Cc1ccc(NC(=O)c2ccc3nsnc3c2)c(C)c1", "activation": "inconclusive: 62%"}, {"compound": "COc1ccc(NC(=O)CN2CCN(CC(=O)Nc3ccc(F)cc3F)CC2)cc1", "activation": "inactive: -4.62%"}, {"compound": "CCCSC1=C(C#N)C(c2ccc(OC)cc2)C2=C(CC(C)(C)CC2=O)N1", "note": "(centres undefined)", "activation": "inconclusive: 30.2%"}, {"compound": "COCc1ccc(CN2CCC(C(=O)Nc3cccc(-c4cscn4)c3)CC2)o1", "activation": "inactive: -0.996%"}, {"compound": "COC(=O)c1sc(N)c(C(=O)OC)c1COC(=O)[C@@H](NS(=O)(=O)c1cccc(Cl)c1)C(C)C", "activation": "inconclusive: 39.1%"}, {"compound": "CCOc1cc(/C=C(\\C#N)C(=O)Nc2cccc(C(=O)O)c2)cc(Br)c1OC(=O)c1ccc(OC)cc1", "activation": "inconclusive: 42.2%"}, {"compound": "COc1ccc(CC2(CO)CCN(CC3=Cc4cc(Cl)ccc4OC3)CC2)cc1", "activation": "inactive: -0.904%"}, {"compound": "CCN(CC)S(=O)(=O)c1ccc(N2CCCCC2)c(NC(=O)/C(C#N)=C/c2ccc(OC)cc2)c1", "activation": "inactive: 0.827%"}, {"compound": "Cc1ccc(Cn2cc(S(=O)(=O)c3ccc(Cl)cc3)c(=O)c3cc(F)ccc32)cc1", "activation": "inconclusive: 48.2%"}, {"compound": "Cc1ccc(OCC(=O)Nc2ccccc2-c2ccccc2)cc1", "activation": "inconclusive: 42.4%"}, {"compound": "CS(=O)(=O)N1CCc2cc(C(=O)N3CCN(c4cccc(Cl)c4)CC3)ccc21", "activation": "inconclusive: 31.9%"}, {"compound": "O=C(COc1ccccc1)Nc1cccc2nsnc12", "activation": "inconclusive: 33.7%"}, {"compound": "O=C(CCc1c[nH]c2ccccc12)NCCOc1ccccc1", "activation": "inconclusive: 38%"}]}]}
